In doi:10.1101/605725:
No constants are given. Whether binding was seen depends on the method and setting. In cells and extracts the contact can be indirect. These calls come from enrichment with a bait or labelling near it, and not all partners need be listed.

Protein sequences, listed by entry. Tags and fused reporters are not part of them.
UniProt Q9VV73: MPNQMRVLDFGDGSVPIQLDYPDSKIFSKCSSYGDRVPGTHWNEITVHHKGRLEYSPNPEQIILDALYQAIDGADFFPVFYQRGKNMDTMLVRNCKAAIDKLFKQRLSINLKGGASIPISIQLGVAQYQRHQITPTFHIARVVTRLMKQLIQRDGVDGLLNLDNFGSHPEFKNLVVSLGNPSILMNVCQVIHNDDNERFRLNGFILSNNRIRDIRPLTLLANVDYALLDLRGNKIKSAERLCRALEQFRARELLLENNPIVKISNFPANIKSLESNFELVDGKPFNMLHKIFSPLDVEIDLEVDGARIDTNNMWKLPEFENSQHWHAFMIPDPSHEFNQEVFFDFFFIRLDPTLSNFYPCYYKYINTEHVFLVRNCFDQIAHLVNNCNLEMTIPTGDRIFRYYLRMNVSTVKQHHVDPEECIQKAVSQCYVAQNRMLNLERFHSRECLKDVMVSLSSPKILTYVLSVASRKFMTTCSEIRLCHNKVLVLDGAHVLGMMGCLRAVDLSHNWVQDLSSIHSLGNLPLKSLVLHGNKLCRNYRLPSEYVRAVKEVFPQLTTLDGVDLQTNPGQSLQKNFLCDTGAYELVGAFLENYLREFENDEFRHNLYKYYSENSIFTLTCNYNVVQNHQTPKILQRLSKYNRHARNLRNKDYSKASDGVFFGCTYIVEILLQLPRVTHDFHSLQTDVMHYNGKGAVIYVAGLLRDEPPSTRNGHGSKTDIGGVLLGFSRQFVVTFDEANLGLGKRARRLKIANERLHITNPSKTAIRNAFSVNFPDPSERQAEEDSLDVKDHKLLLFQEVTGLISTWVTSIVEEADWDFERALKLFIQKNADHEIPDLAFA

Target: flag-tagged Nxf2 (Drosophila) (UniProt Q9VV73)
Experiment: affinity purification with mass spectrometry

- binding: binds
B1: Piwi (protein, UniProt Q9VKM1 1-843)
chain: MADDQGRGRRRPLNEDDSSTSRGSGDGPRVKVFRGSSSGDPRADPRIEASRERRALEEAPRREGGPTERKPWGDQYDYLNTRPAELVSKKGTDGVPVMLQTNFFRLKTKPEWRIVHYHVEFEPSIENPRVRMGVLSNHANLLGSGYLFDGLQLFTTRKFEQEITVLSGKSKLDIEYKISIKFVGFISCAEPRFLQVLNLILRRSMKGLNLELVGRNLFDPRAKIEIREFKMELWPGYETSIRQHEKDILLGTEITHKVMRTETIYDIMRRCSHNPARHQDEVRVNVLDLIVLTDYNNRTYRINDVDFGQTPKSTFSCKGRDISFVEYYLTKYNIRIRDHNQPLLISKNRDKALKTNASELVVLIPELCRVTGLNAEMRSNFQLMRAMSSYTRMNPKQRTDRLRAFNHRLQNTPESVKVLRDWNMELDKNVTEVQGRIIGQQNIVFHNGKVPAGENADWQRHFRDQRMLTTPSDGLDRWAVIAPQRNSHELRTLLDSLYRAASGMGLRIRSPQEFIIYDDRTGTYVRAMDDCVRSDPKLILCLVPNDNAERYSSIKKRGYVDRAVPTQVVTLKTTKNRSLMSIATKIAIQLNCKLGYTPWMIELPLSGLMTIGFDIAKSTRDRKRAYGALIASMDLQQNSTYFSTVTECSAFDVLANTLWPMIAKALRQYQHEHRKLPSRIVFYRDGVSSGSLKQLFEFEVKDIIEKLKTEYARVQLSPPQLAYIVVTRSMNTRFFLNGQNPPPGTIVDDVITLPERYDFYLVSQQVRQGTVSPTSYNVLYSSMGLSPEKMQKLTYKMCHLYYNWSGTTRVPAVCQYAKKLATLVGTNLHSIPQNALEKKFYYL
